In PMC4254994 (PLoS ONE, 2014):
Results are given in words; binding and its absence hold for the method and conditions named.

By UniProt entry, the sequences of proteins in these tests, tags left out.
UniProt P9WKX3, whole entry: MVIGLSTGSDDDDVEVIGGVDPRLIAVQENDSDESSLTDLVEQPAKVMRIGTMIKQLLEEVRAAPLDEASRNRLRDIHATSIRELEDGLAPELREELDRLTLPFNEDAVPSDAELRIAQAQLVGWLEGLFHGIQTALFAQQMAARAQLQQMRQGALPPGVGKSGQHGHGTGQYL

Molecular target: Wild type 20S proteasome PrcAB (mature holoparticle), Strep-tagged (Mycobacterium tuberculosis) (UniProt P9WHU1)
Test: pull-down; both purified

Bacterial proteasome activator Bpa (Rv3780) of Mycobacterium tuberculosis (from UniProt P9WKX3 1-174)
binding: no binding
